Experimental data published in PMC9581534.

Chains of the proteins cited; added tags and fusions are not shown. Lines headed by an entry give the natural chain unless they say otherwise; changes in a name come on top.
UniProt P16070: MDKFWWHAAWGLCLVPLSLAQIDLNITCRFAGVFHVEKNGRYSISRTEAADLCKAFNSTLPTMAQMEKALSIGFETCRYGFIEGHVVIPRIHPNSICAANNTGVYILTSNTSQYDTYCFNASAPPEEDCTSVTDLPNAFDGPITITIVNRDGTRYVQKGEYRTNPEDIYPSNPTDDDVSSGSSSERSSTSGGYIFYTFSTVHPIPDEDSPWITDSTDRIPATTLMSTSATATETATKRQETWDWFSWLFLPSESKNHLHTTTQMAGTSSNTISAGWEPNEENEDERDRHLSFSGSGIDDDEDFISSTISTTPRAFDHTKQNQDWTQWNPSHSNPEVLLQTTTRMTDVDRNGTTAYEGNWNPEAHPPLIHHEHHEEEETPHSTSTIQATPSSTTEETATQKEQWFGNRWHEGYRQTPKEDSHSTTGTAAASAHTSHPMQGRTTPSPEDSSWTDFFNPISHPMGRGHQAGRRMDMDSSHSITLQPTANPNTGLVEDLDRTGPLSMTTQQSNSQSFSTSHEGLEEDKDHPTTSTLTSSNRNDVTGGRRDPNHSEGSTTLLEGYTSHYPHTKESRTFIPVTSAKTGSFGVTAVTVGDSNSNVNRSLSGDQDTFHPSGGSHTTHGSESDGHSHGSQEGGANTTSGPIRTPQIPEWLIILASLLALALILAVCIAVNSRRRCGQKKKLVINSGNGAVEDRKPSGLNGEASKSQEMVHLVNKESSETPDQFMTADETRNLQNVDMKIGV

Target: Flag-tagged CD44 mutant CD44.m2 (point mutations in domain II) (human) (UniProt P16070)
Assay: co-IP; HEK293ft cells co-transfected with Flag-CD44 (WT or mutant) and HA-CD81 (WT or CD81d), harvested after 48 h; 200 µg lysate on anti-FLAG M2 magnetic beads overnight, glycine elution, immunoblot

binding: binds
B1: HA-tagged CD81 (wild type), expressed in HEK293ft cells (protein, UniProt P60033 1-236)
chain: MGVEGCTKCIKYLLFVFNFVFWLAGGVILGVALWLRHDPQTTNLLYLELGDKPAPNTFYVGIYILIAVGAVMMFVGFLGCYGAIQESQCLLGTFFTCLVILFACEVAAGIWGFVNKDQIAKDVKQFYDQALQQAVVDDDANNAKAVVKTFHETLDCCGSSTLTALTTSVLKNNLCPSGSNIISNLFKEDCHQKIDDLFSGKLYLIGIAAIVVAVIMIFEMILSMVLCCGIRNSSVY

No constants are given. Whether binding was seen depends on the method and setting. Binding seen in cells or lysates may run through a third protein. A result given as binding can be weak or reduced; the word gives no strength. Tags and fused reporters may be left off the sequences shown.
